Experimental findings from publication PMC7504119 are described below.

By UniProt entry, the sequences of proteins in these tests, tags left out. Residues count along the entry.
UniProt P25705, residues 44-553: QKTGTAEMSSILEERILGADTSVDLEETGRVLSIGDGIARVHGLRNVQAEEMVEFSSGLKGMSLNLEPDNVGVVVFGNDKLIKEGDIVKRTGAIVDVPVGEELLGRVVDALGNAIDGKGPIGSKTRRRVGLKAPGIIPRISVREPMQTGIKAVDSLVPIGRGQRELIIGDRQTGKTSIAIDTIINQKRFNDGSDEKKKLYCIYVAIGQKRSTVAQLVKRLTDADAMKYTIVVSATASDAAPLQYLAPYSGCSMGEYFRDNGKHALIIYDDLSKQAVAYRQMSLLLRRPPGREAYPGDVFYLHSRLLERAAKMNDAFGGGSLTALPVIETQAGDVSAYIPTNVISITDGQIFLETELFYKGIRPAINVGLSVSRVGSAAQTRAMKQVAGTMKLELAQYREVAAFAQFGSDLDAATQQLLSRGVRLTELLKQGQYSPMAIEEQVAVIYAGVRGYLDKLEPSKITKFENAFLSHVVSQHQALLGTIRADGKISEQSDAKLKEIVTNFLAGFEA

Results are given in words; binding and its absence hold for the method and conditions named. In cells and extracts the contact can be indirect. These calls come from enrichment with a bait or labelling near it, and not all partners need be listed. For some of these results: Where a sequence is shown, tags or fusion partners need not be part of it.

Experiment [1] deals with T1, FLAG-SBP-Sestrin2 (human) (UniProt P58004).
T1 sequence: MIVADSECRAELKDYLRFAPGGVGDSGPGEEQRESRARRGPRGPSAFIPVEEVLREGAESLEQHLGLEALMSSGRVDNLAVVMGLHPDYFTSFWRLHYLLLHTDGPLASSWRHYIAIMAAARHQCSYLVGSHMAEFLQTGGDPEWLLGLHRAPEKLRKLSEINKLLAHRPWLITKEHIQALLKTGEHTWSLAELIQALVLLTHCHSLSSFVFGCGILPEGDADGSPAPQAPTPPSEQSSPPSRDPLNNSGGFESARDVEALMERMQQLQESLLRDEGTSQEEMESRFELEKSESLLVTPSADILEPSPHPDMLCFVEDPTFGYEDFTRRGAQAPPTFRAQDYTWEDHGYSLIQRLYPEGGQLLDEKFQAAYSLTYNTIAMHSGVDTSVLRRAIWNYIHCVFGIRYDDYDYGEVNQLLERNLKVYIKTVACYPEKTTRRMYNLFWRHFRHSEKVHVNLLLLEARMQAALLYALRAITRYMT
As to the kind of experiment: affinity purification with mass spectrometry; tandem affinity purification of FLAG-SBP-Sestrin2 from MCF-10A lysate (0.3% CHAPS): FLAG antibody resin, 3x FLAG peptide elution, streptavidin resin, biotin elution; LC/ESI MS/MS; proteins also found in the vector control taken as false-positive.

Experiment [2] concerns the target T2, endogenous Sestrin2 (HEK293) (human (endogenous in HEK293)) (UniProt P58004).
T2 sequence: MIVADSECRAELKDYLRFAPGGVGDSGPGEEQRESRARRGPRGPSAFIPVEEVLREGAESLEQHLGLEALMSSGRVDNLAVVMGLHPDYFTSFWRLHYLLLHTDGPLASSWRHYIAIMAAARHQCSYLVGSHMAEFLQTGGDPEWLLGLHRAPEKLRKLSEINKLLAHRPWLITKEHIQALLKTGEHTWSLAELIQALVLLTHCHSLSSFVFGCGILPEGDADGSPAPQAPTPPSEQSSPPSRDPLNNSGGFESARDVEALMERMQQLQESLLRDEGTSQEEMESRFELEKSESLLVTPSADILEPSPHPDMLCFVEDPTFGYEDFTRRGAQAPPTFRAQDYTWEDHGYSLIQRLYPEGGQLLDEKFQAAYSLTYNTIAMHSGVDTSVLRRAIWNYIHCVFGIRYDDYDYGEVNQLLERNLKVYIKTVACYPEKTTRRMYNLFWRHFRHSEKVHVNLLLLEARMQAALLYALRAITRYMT
As to the kind of experiment: affinity purification with mass spectrometry; mitochondria isolated from HEK293 cells; endogenous Sestrin2 immune-purified with Sestrin2-specific antibody; LC-ESI-MS/MS.

Consider “sulfide quinone oxidoreductase (SQRDL) (human (endogenous in MCF-10A))”, for which, in experiment [1], the binding result was “binds”. The same measure, in the same setting: the value for “mitochondrial ATP synthase, F1 complex, alpha subunit 1 (ATP5A), endogenous in MCF-10A (from UniProt P25705 44-553)” was “binds”. In the case of “endogenous ATP5A (HEK293) (from UniProt P25705 44-553)”, the binding result in experiment [2] was “binds”.

B1: acyl-CoA synthetase long-chain family member 5 (ACSL5) (protein, UniProt Q9ULC5 1-683)
chain: MLFIFNFLFSPLPTPALICILTFGAAIFLWLITRPQPVLPLLDLNNQSVGIEGGARKGVSQKNNDLTSCCFSDAKTMYEVFQRGLAVSDNGPCLGYRKPNQPYRWLSYKQVSDRAEYLGSCLLHKGYKSSPDQFVGIFAQNRPEWIISELACYTYSMVAVPLYDTLGPEAIVHIVNKADIAMVICDTPQKALVLIGNVEKGFTPSLKVIILMDPFDDDLKQRGEKSGIEILSLYDAENLGKEHFRKPVPPSPEDLSVICFTSGTTGDPKGAMITHQNIVSNAAAFLKCVEHAYEPTPDDVAISYLPLAHMFERIVQAVVYSCGARVGFFQGDIRLLADDMKTLKPTLFPAVPRLLNRIYDKVQNEAKTPLKKFLLKLAVSSKFKELQKGIIRHDSFWDKLIFAKIQDSLGGRVRVIVTGAAPMSTSVMTFFRAAMGCQVYEAYGQTECTGGCTFTLPGDWTSGHVGVPLACNYVKLEDVADMNYFTVNNEGEVCIKGTNVFKGYLKDPEKTQEALDSDGWLHTGDIGRWLPNGTLKIIDRKKNIFKLAQGEYIAPEKIENIYNRSQPVLQIFVHGESLRSSLVGVVVPDTDVLPSFAAKLGVKGSFEELCQNQVVREAILEDLQKIGKESGLKTFEQVKAIFLHPEPFSIENGLLTPTLKAKRGELSKYFRTQIDSLYEHIQD
Consider B1, for which the binding entry in experiment [1] is “binds”.
